According to paper PMC12390655 (Viruses, 2025):
Results are given in words; binding and its absence hold for the method and conditions named.

Chains of the proteins cited; added tags and fusions are not shown. Residues count along the entry.
UniProt Q05322, residues 11-237: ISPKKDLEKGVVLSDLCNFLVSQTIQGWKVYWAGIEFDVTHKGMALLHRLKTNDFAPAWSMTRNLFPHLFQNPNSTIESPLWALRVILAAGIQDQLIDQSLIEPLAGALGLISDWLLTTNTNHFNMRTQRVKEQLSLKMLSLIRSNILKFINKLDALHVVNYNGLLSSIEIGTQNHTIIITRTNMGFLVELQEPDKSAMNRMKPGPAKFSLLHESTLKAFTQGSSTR

Legend:
[1] = molecular target: T1, bipartite NLS (bpNLS) from the nucleoplasmin; test: fluorescence polarisation; both purified
T1 sequence (peptide): KRPAATKKAGQAKKKK

[2] = molecular target: T2, monopartite NLS peptide (mpNLS) from the SV40 large T antigen (SV40); test: fluorescence polarisation; both purified
T2 sequence (peptide, N-terminal fluorescein label (fluorescein-Ahx-)): STPPKKKRKVE

## Ebola VP24 aa 11–237 (from UniProt Q05322 11-237) (domain or fragment)
[1]
  binding: no binding
[2]
  binding: no binding
